Laboratory results reported in PubChem BioAssay AID493014 (National Center for Advancing Translational Sciences (NCATS), 2011).
Among all 340,000 compounds or so, about 170 (0.05%) were called active. Inconclusive means that the source gave no clear call. Such entries were picked first, then a sample of the others. Calls follow the shape of the dose curve; as a rule, active = well fitted inhibition curve with a large enough effect in the signal ratio, with a control signal flat (not every such curve was filed as active); inconclusive = small, poorly fitted or top-dose-only effect, or effect the other way, or a change in a side signal; inactive = flat fitted curve, though single readings scatter; the % refers to the signal ratio. Where the call is inconclusive, the potency comes from a doubtful curve fit.
Potency is read from the fitted curve at half-maximal effect.

Assay: qHTS Assay to Find Inhibitors of Chronic Active B-Cell Receptor Signaling;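 as to activity change, negative = inhibition: plate controls were basal doxycycline-induced cells for no effect and cells given 10 µM MG132 for full effect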
Settings: ABC-DLBCL IkBa-CBG/CBR reporter, luminescence ratio (green luciferase fused to IkBa over red control in TMD8 lymphoma cells), 4 h; activity change, negative = inhibition: at 46.1 µM (top of the series) unless noted
Procedure, shortened: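 TMD8 ABC-DLBCL cells carrying doxycycline-inducible green luciferase fused to IkappaBalpha plus unfused red luciferase were exposed to compounds (up to 46 uM) for 4 hrs at 37C. Activity came from the overlap-corrected green/red luminescence ratio.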
With `Cc1csc(NC(=O)CSc2nnc(CCNC(=O)c3cccs3)n2C)n1` the activity change, negative = inhibition was inconclusive: -23.1%.
With `Cc1ccc(C(=O)Oc2cc(C)n(C)c(=O)c2)cc1` the activity change, negative = inhibition was inconclusive: -17.6%.
In the case of `Cc1c(C)n2c(SCC(=O)Nc3cccc4ccccc34)nnc2[nH]c1=O`, the activity change, negative = inhibition is reported as inconclusive: -4.68%.
In the case of `COc1ccc(CNCCC(c2ccc(OC(C)C)cc2)C(C)C)cc1OC` (configuration not stated), the activity change, negative = inhibition is reported as inconclusive: -15.3%.
For `Cc1c(NC(=O)CN2CCCC(C)C2)ccc2nsnc12` (configuration not stated), the activity change, negative = inhibition was “inactive”.
With `c1ccc(N2CCN(c3nc4cc5c(cc4s3)OCCO5)CC2)cc1` the activity change, negative = inhibition was inconclusive: 10.4%.
With `CCOc1ccc(NC(=O)C2CC(=O)N(c3cc(C)cc(C)c3)C2)cc1` (configuration not stated) the activity change, negative = inhibition was inconclusive: 0.175%.
With `CCOC(=O)C1=C(C)N(C)C(C)=C(C(=O)OCC)C1c1ccc(Cl)cc1` the activity change, negative = inhibition was inconclusive: -2.92%.
In the case of `Cc1ccc(/C=N/n2c(-c3cccnc3)n[nH]c2=S)s1`, the activity change, negative = inhibition is reported as inconclusive: 4.65%.
For `CCOC(=O)c1c(C)[nH]c(C)c1C(=O)CSc1nnc(-c2ccco2)n1Cc1ccccc1`, the activity change, negative = inhibition was inconclusive: 3.13%.
With `CCc1nc(SCC(=O)Nc2cc(C)ccc2OC)c2c(C)c(C)sc2n1` the activity change, negative = inhibition was “inactive”.
In the case of `CCc1ccc(Nc2n[n+](-c3ccccc3)c(-c3ccc(OC)c(Br)c3)s2)cc1`, the Potency is reported as inconclusive: 5.01 µM [falling, partial curve, poor fit].
With `Cc1ccccc1S(=O)(=O)Cc1ccc(C(=O)NC2CCCCC2C)o1` (configuration not stated) the activity change, negative = inhibition was “inactive”.
For `COc1ccc([C@H]2CC(=O)C=C(c3ccc(OC)cc3OC)C2)cc1`, the Potency was inconclusive: 16.4 µM [falling, partial curve].
For `CCC(C(=O)OCC(=O)Nc1c(Cl)cccc1Cl)c1ccccc1` (configuration not stated), the activity change, negative = inhibition was inconclusive: -6.92%.
In the case of `Cc1ccc(C(CNC(=O)Nc2ccc(Cl)cc2)N2CCN(C)CC2)cc1` (configuration not stated), the activity change, negative = inhibition is reported as inconclusive: 11.1%.
With `CCCOc1ccc(NCC(=O)Nc2ccc(C)cc2C)cc1` the activity change, negative = inhibition was inconclusive: 7.17%.
For `C=CCSc1nc(NC)c2sccc2n1`, the Potency was inconclusive: 35.5 µM [falling, partial curve, poor fit].
With `Cc1ccc(C(=O)NC(=S)N2CCN(C)CC2)cc1Br` the activity change, negative = inhibition was “inactive”.
In the case of `Cc1cc(C(=O)N(C2CCCCC2)C2CCCCC2)no1`, the activity change, negative = inhibition is reported as “inactive”.
For `CCOc1ccc(C(=O)Nc2cc(C)on2)cc1OCC`, the activity change, negative = inhibition was inconclusive: -1.69%.
For `Cc1cccc(N2CN(Cc3cccnc3)CNC2=S)c1C`, the activity change, negative = inhibition was “inactive”.
With `CCCSc1nc2c(c(=O)[nH]c(=O)n2C)n1Cc1ccc(C)cc1` the activity change, negative = inhibition was inconclusive: 2.65%.
In the case of `O=C(Nc1ccccc1F)c1ccc2c(c1)CCN2S(=O)(=O)c1ccccc1`, the Potency is reported as inconclusive: 5.01 µM [falling, partial curve, poor fit].
For `CCSc1nccc(-c2nn(-c3ccc(C)cc3)ccc2=O)n1`, the Potency was inconclusive: 7.31 µM [falling, single point].
With `CC1CCc2nc(NC(=O)CN3CCN(Cc4ccc5c(c4)OCO5)CC3)sc2C1` (configuration not stated) the activity change, negative = inhibition was “inactive”.
For `N#C/C(=C(/O)c1ccc([N+](=O)[O-])cc1)c1nc2ccccc2[nH]1`, the Potency was inconclusive: 2.24 µM [falling, full curve, poor fit].
In the case of `CCN1C(=O)[C@H]2[C@@H](c3ccc(-c4ccc(C(C)=O)cc4)cc3)N[C@@](Cc3ccccc3)(C(=O)OC)[C@H]2C1=O`, the activity change, negative = inhibition is reported as “inactive”.
For `CCOc1ccc2nc(N3C(=O)/C(=C/c4ccccc4)NC3=S)sc2c1`, the activity change, negative = inhibition was inconclusive: -0.317%.
With `Clc1ccc2scc(CN3CCCCC3)c2c1` the activity change, negative = inhibition was inconclusive: 1.24%.
In the case of `Cc1cccc(OCC(=O)N(Cc2ccc(F)cc2)C2CCS(=O)(=O)C2)c1C` (configuration not stated), the activity change, negative = inhibition is reported as inconclusive: -13.7%.
For `Nc1nc(Nc2cccc(C(F)(F)F)c2)nc(C(F)(F)F)n1`, the activity change, negative = inhibition was inconclusive: -0.236%.
With `Cc1cc(=O)oc2cc(OCC(=O)N3CCN(c4ccccc4)CC3)ccc12` the activity change, negative = inhibition was inconclusive: 4.36%.
With `CC(=O)Nc1ccc(C(=O)Nc2ccc3c(c2)N(C2CCCC2)C(=O)c2ccccc2S3)cc1` the activity change, negative = inhibition was inconclusive: 22.7%.
With `CCn1c(O)c(/C=N/N=C/c2ccccc2)c2ccc(C3=NNC(=O)CC3)cc21` the activity change, negative = inhibition was “inactive”.
For `COC(=O)c1sccc1NC(=O)CSc1cccc(Cl)c1Cl`, the activity change, negative = inhibition was inconclusive: -14.3%.
In the case of `CC(/C=N/Nc1nc(C)cc(C)n1)=C\c1ccc(C(C)C)cc1`, the activity change, negative = inhibition is reported as inconclusive: -0.607%.
With `Cc1ccccc1Nc1nc(N)nc(COC(=O)CCS(=O)(=O)c2ccccc2)n1` the Potency was inconclusive: 25.1 µM [falling, single point].
With `CCn1c(CNC(=O)c2ccc(Cl)cc2)nnc1SCC(=O)NC1=NCCS1` the activity change, negative = inhibition was “inactive”.
With `Cc1ccc(OCC(=O)OCC(=O)c2c(N)n(C)c(=O)n(C)c2=O)cc1C` the activity change, negative = inhibition was inconclusive: 2.07%.
In the case of `COc1cccc(NC(=O)CSc2nc3c(sc4ccccc43)c(=O)n2CCCN2CCCC2)c1`, the activity change, negative = inhibition is reported as inconclusive: -14.9%.
In the case of `COc1ccc(OC)c(NC(=O)Nc2ccc(Cl)cc2)c1`, the Potency is reported as inconclusive: 5.8 µM [rising, partial curve, poor fit].
With `COc1ccc(NC(=O)N2c3ccc(OC)cc3C(C)=CC2(C)C)cc1` the Potency was inconclusive: 13 µM [falling, partial curve, poor fit].
In the case of `O=C(COC(=O)c1cncc(Br)c1)Nc1nc(-c2ccc(F)cc2)cs1`, the Potency is reported as inconclusive: 10 µM [falling, partial curve].
For `CCOC(=O)C1=C(C)NC2=C(C(=O)CCC2)C1c1ccc(O)c(OCC)c1` (configuration not stated), the activity change, negative = inhibition was “inactive”.
With `Cc1ccc2nc(NC(=O)c3ccc4c(c3)OCO4)sc2c1` the Potency was inconclusive: 3.55 µM [falling, partial curve].
With `CCCNc1c(NS(=O)(=O)c2cccs2)c(=O)oc2ccccc12` the Potency was inconclusive: 35.5 µM [falling, single point].
In the case of `CCCn1c(SCC(=O)c2ccc3c(c2)NC(=O)CO3)nc2ccccc21`, the activity change, negative = inhibition is reported as “inactive”.
In the case of `COc1cc(Cl)ccc1OCc1cc(C(=O)NC(C)Cc2cccnc2)no1` (configuration not stated), the activity change, negative = inhibition is reported as inconclusive: -22.6%.
With `COc1ccc(C(=O)CN2CCN(c3ccc(F)cc3)CC2)cc1OC` the Potency was inconclusive: 12.6 µM [falling, single point].
With `COc1cc(/C=N\NC(=O)c2ccc(-c3ccccc3)cc2)cc(OC)c1OC(C)=O` the Potency was inconclusive: 12.6 µM [falling, single point].
In the case of `CC1(C)CC(=O)C2=C(C1)Nc1ccccc1NC2c1cc(Cl)ccc1O` (configuration not stated), the activity change, negative = inhibition is reported as “inactive”.
With `CCOC(=O)Cc1csc(NC(=O)Nc2ccccc2)n1` the activity change, negative = inhibition was inconclusive: -16.2%.
In the case of `Cc1nn(Cc2ccccc2)c(N)c1C#N`, the activity change, negative = inhibition is reported as inconclusive: 2.06%.
In the case of `CN(C)CCNC(=O)/C(=C/c1ccc(-c2cccc([N+](=O)[O-])c2)o1)NC(=O)c1ccccc1`, the activity change, negative = inhibition is reported as inconclusive: -15.6%.
In the case of `NNc1nc2ccc(Cl)cc2s1`, the Potency is reported as inconclusive: 4.11 µM [falling, partial curve].
For `O=c1cc2c(nn1Cc1ccc(F)cc1)-c1ccccc1CC2`, the activity change, negative = inhibition was inconclusive: 0.802%.
For `C/C(Cn1nnc([N+](=O)[O-])n1)=N\NC(=O)c1ccc(Cl)c(Cl)c1`, the Potency was inconclusive: 12.6 µM [falling, partial curve, poor fit].
In the case of `O=C(CN1CCOCC1)Nc1ccc(-c2nc3ccccc3[nH]2)cc1`, the activity change, negative = inhibition is reported as “inactive”.
With `O=C(c1cc2ncc(Br)cn2n1)N1CCN(C(=O)c2ccco2)CC1` the activity change, negative = inhibition was inconclusive: -1.85%.
With `N#C/C(=C\c1ccc(N2CCOCC2)o1)C(=O)NCCc1ccccc1` the activity change, negative = inhibition was “inactive”.
For `CCCCCc1nnc(NS(C)(=O)=O)s1`, the activity change, negative = inhibition was inconclusive: 0.163%.
With `O=c1c2cc(N3CCOCC3)ccc2[nH]c(=S)n1Cc1ccccn1` the activity change, negative = inhibition was inconclusive: 5.62%.
For `Cc1nnc(NC(=O)CSc2cn(CCNC(=O)c3ccccc3)c3ccccc23)s1`, the activity change, negative = inhibition was “inactive”.
With `O=C1O/C(=C/c2ccccc2)c2ccccc21` the activity change, negative = inhibition was inconclusive: -6.44%.
For `O=C(COC(=O)c1ccncc1)Nc1cc(S(=O)(=O)N2CCOCC2)ccc1Cl`, the activity change, negative = inhibition was inconclusive: 0.603%.
For `Oc1ccc(CNc2ccccc2)c2cccnc12`, the Potency was inconclusive: 10 µM [falling, partial curve].
In the case of `O=C(Cc1n[nH]c(=O)c2ccccc12)Nc1cccc(S(=O)(=O)N2CCCC2)c1`, the Potency is reported as inconclusive: 7.94 µM [falling, partial curve].
In the case of `Cc1cc(C)cc(NC(=O)c2cc(S(=O)(=O)N3CCCC3)ccc2F)c1`, the Potency is reported as inconclusive: 20 µM [falling, partial curve, poor fit].
In the case of `O=C(CC1SC(=O)N(Cc2cccc3ccccc23)C1=O)Nc1nccs1` (configuration not stated), the activity change, negative = inhibition is reported as inconclusive: 18%.
For `Fc1ccc(C(CCCn2nnc(-c3cccnc3)n2)c2ccc(F)cc2)cc1`, the activity change, negative = inhibition was “inactive”.
With `Cc1cc(C)c2nc(N3CCOCC3)c(C#N)cc2c1` the activity change, negative = inhibition was “inactive”.
In the case of `Cc1cc(CSc2ccccc2)ccc1NC(=O)COc1ccccc1`, the activity change, negative = inhibition is reported as inconclusive: 12.7%.
With `CCOc1ncccc1C(=O)OCC(=O)c1cccc(Br)c1` the activity change, negative = inhibition was inconclusive: 9.59%.
With `CCCCNc1ccc(C(CC(N)=O)NC(=O)c2ccccc2)cc1[N+](=O)[O-]` (configuration not stated) the activity change, negative = inhibition was inconclusive: 1.21%.
In the case of `O=C(NNC(=S)Nc1ccc(F)cc1)C1CC1c1ccc(Cl)cc1` (configuration not stated), the activity change, negative = inhibition is reported as “inactive”.
With `O=C(NNc1ccccn1)C(c1ccccc1)c1ccccc1` the activity change, negative = inhibition was “inactive”.
With `COc1cccc(-c2nnc3n2N=C(C(C)(C)C)CS3)c1` the activity change, negative = inhibition was inconclusive: 16.8%.
With `S=C(N/N=C/c1ccc2ncccc2c1)Nc1ccccc1` the activity change, negative = inhibition was “inactive”.
In the case of `Cc1nc(-c2cccc(S(=O)(=O)N3CCC(C(=O)NCc4ccccc4Cl)CC3)c2)no1`, the Potency is reported as inconclusive: 0.224 µM [falling, full curve, poor fit].
With `COc1cc(CNc2ccc(N3CCCC3)cc2)cc(Cl)c1OC` the activity change, negative = inhibition was inconclusive: -26.4%.
With `CO[C@H]1C[C@@H]2CC[C@@H](C)[C@@](O)(O2)C(=O)C(=O)N2CCCC[C@H]2C(=O)O[C@H]([C@H](C)C[C@@H]2CC[C@@H](O)[C@H](OC)C2)CC(=O)[C@H](C)C=C(C)[C@@H](O)[C@@H](OC)C(=O)[C@H](C)C[C@H](C)C=CC=CC=C1C` the activity change, negative = inhibition was “inactive”.
